These are yes or no findings as the source states them, for the method shown. Binding seen in cells or lysates may run through a third protein. Where a sequence is shown, tags or fusion partners need not be part of it.
Target: T1, SIRT4-Flag (human) (UniProt Q9Y6E7)
T1 sequence: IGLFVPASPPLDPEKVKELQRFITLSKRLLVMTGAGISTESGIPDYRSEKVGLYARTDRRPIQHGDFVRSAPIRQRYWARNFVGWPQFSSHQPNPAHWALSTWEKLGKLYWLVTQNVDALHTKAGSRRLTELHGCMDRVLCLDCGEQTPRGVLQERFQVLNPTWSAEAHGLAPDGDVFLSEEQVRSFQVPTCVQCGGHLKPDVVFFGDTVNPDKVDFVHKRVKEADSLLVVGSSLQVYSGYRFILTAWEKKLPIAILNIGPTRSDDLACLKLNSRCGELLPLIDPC
Test: co-IP

KRAS (endogenous, HEK293 cells) (from UniProt P01116 1-189)
binding: no binding
